These are yes or no findings as the source states them, for the method shown. Binding seen in cells or lysates may run through a third protein. Some entries that bind do so weakly or less than the wild type.
Molecular target: T1, liprin-β1 (mouse (endogenous in MIN6)) (UniProt Q8C8U0)
T1 sequence: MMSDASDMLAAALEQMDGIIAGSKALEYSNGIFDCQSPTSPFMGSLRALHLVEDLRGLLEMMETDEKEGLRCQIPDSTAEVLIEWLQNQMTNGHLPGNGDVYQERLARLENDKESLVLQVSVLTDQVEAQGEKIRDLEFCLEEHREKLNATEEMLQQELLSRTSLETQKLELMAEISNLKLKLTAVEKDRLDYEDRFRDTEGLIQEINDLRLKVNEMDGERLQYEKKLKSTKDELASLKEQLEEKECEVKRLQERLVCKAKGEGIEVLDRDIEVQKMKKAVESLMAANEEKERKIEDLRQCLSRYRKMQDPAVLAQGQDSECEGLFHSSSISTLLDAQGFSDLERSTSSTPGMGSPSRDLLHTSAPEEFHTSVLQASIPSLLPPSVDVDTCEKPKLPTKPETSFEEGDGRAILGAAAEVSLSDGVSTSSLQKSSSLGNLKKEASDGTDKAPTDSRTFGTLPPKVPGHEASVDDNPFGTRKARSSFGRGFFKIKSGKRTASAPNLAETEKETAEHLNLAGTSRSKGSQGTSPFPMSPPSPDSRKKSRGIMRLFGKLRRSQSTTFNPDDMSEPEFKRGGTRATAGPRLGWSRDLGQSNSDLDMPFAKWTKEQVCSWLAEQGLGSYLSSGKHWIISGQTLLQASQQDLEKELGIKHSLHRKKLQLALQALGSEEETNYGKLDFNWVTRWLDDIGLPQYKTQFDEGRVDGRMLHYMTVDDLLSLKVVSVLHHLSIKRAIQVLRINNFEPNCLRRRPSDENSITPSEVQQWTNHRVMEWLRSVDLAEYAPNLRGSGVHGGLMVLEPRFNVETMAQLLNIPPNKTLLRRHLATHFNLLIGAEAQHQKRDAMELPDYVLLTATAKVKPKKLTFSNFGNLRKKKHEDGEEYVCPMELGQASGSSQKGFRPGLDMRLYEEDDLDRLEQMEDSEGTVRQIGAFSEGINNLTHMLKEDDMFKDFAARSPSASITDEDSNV
Test: co-IP; MIN6 β-cell line; immunoprecipitation of endogenous liprin-β1 with anti-liprin-β1 antibody, IgG control; blots for liprin-α1 and KANK1; n = 3

B1: KANK1 (protein, UniProt E9Q238 1-1360)
chain: MAYTTKVNGCAAEKADGVLNGDHNKEKKDPYFVETPYGFQLDLDFVKYVDDIQKGNTIKKLNIQKRRKPSVPCPEVRAIPGHQGVWTSTESLSSSNSDDSKQCPSFLLARSHVTSTPIPRPPAPLETSPTFAVSENRQLLPPPSPQLPRHNLHVTKTLMETRRRLEQERVTMQMAPGDFRRPRLASFGGMGSTSSLPSFVGSANHSSAIHQLQNGYQGNGDYNSYVPAAPTTSSMGSSVRHSPLSSGISTPVTNVSPMHLQHIREQMAIALKRLKELEEQVRTIPVLQVKISVLQEEKRQLASQLKSQRASSQNEACGVRKRSYSAGNASQLELLARARRGGGELYIDYEEEEMESVEQSTQRIQEFRQLTADMQALERKIQDSSCEVASELRENGQCPSRECKSVAVGSDENMNDVVVYHRDLRPCKDTAVGTVTETRNVGISVTEAMLGVITEADKEIELQQQTIEALKEKIYRLEVQLKETTHDREMTKLKQELQAAGSRKKVDKATMAQPLVFSKLVEALVPTRDQMVGSHVDTRESCVGTSVQTSSVGTSCHPDCKNQVVGSELPMNWWVVKERVAMHDQCVGRSVETCDRSVGVEVSVCETGSNTEASGSDLTLLKTNLNLKDVRSIGCGDCSVDVIVCFPKECTSRSMNTEAVGQEEAAVMAVPHTTDQHTSTNLERVDQCTNTEAATLVESCTNTLLSTMDKQTSTQTVEMRTVAIGEGRVRDINPSTKTRSVGVGTVLSGNSEFDRPCAVKTKESGVGQINIQDNYLVGLKMRTIACGPPQLTVGLMGSRRSVGVGNEPVGELPEESPQPRVASGMVTGLDHYIERVQRLLAEQQTLLAENYSELAEAFGEPHSQIGSLNSQLISTLSSINSVMKSASTEELRNSDFQKASLGKTTGNHLEYTCKCGGLRSGGLLNVQPSQPEVEAETAEGKHSRGHEQFPMQGSTLPPVNLTDDQIATGLYVCPNNENTLKSIMKKSDGNKDSNGAKKNLQFIGINGGYETTSSDESSSDGSSSSESDDECDTIGYPPEEEEEEEEKDHDTRGMAEGHHAVNIEGFKSARVEDEVQVPECEPEKEEIRERYELSEKMLSACNLLKYNIKDPKALASKDMRICLNTLQHDWFRVSSQKSAVPAMVGDYIAAFEAVSPDVLRYIINMADGNGNTALHYSVSHSNFQIVKLLLDADVCNVDHQNKAGYTPIMLAALAAVEAEKDMQVVEELFSCGDVNAKASQAGQTALMLAVSHGRIDMVKGLLACGADVNIQDDEGSTALMCASEHGHVEIVKLLLAQPGCNGHLEDNDGSTALSIALEAGHKDIAVLLYAHLNFSKAQSPSTPRLGRKTSPGPTHRGSFD
For B1, the binding was “binds”.

— PMC12803835
